Measurements published in PMC8438078.
No constants are given. Whether binding was seen depends on the method and setting. In cells and extracts the contact can be indirect. Some results given as binding are weak or reduced against the parent protein; the word gives no strength.

Protein sequences, listed by entry. Tags and fused reporters are not part of them. Residues count along the entry.
UniProt Q9NZQ7, residues 19-290: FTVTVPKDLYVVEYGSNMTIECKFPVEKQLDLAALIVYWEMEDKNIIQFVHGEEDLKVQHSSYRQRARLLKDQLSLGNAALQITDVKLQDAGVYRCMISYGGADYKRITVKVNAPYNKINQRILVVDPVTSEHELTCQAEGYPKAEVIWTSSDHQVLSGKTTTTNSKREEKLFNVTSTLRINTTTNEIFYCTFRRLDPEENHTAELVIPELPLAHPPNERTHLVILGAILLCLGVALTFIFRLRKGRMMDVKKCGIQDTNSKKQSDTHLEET
UniProt P62491: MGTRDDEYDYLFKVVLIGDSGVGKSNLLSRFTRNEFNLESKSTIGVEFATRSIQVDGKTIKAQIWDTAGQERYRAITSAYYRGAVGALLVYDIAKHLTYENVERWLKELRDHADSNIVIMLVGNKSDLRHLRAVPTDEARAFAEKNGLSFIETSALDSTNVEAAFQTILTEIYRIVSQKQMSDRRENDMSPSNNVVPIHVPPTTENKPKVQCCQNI
UniProt Q9Y296: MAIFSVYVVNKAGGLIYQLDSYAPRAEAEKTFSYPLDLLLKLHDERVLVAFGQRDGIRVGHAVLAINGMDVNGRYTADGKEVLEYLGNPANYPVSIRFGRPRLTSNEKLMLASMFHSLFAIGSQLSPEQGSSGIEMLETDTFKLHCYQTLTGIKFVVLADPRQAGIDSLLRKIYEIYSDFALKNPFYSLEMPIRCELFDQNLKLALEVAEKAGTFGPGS
UniProt O43617: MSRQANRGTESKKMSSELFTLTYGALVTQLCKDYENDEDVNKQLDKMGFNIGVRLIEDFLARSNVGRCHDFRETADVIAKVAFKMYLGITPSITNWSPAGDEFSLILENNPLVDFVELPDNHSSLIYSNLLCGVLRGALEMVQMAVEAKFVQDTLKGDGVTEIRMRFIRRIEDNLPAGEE
UniProt Q9Y2L5: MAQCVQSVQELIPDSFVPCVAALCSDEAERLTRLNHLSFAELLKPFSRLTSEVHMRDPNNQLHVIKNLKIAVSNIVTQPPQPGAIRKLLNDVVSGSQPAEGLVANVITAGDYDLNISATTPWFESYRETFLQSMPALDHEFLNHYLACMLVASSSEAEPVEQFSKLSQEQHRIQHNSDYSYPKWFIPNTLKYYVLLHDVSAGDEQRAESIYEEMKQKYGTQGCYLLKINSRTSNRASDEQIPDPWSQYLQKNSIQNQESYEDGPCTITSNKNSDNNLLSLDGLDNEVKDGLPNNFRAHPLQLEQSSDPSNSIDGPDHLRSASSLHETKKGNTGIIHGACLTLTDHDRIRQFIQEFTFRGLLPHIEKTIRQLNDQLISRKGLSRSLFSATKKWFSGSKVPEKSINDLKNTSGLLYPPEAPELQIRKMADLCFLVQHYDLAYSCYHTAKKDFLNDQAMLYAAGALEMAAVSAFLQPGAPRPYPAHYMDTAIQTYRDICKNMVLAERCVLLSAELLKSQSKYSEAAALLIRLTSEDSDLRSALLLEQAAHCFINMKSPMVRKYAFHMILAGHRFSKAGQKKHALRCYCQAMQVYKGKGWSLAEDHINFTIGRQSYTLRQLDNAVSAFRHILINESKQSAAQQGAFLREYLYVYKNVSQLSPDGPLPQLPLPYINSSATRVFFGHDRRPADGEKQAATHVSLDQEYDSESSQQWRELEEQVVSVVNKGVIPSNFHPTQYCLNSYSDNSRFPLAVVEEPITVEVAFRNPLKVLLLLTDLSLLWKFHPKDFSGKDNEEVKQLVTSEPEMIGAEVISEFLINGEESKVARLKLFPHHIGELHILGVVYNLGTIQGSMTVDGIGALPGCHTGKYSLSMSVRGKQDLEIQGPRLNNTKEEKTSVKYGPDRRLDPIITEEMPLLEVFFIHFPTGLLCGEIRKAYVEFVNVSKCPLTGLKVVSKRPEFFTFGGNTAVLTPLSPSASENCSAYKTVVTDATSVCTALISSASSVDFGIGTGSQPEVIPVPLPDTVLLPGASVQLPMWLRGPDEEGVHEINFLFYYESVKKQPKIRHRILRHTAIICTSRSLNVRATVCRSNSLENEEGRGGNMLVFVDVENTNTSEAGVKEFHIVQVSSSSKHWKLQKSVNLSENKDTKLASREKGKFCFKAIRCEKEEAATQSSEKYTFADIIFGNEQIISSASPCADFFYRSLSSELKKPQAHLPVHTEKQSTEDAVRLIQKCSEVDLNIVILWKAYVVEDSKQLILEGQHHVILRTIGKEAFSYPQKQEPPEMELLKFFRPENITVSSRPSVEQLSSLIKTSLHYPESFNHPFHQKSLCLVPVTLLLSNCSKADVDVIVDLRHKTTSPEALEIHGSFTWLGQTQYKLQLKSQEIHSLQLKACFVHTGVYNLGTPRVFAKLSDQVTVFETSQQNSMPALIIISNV
UniProt Q8WVT3: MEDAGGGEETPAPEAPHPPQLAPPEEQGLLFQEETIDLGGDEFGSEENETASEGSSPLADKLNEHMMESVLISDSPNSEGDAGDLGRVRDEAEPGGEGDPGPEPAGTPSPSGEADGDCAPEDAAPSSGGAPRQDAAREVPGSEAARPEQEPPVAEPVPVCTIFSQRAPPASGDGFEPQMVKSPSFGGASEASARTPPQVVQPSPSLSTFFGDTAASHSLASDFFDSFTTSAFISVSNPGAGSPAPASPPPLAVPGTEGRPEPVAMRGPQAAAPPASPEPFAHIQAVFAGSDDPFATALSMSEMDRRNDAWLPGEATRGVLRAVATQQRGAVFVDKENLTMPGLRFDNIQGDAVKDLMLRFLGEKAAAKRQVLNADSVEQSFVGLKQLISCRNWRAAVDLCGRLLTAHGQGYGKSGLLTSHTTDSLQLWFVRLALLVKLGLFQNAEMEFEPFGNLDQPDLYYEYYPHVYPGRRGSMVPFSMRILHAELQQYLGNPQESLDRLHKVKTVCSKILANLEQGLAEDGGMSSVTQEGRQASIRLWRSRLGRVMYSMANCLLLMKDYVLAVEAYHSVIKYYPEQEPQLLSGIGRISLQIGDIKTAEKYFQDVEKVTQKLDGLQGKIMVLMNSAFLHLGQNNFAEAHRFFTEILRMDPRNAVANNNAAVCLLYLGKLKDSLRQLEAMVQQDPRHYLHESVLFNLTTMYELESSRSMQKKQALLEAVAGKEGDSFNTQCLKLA

Columns and labels:
[1] = biological target: FLAG-PD-L1 (UniProt Q9NZQ7); test: co-IP; RKO and LoVo cells co-transfected with FLAG-PD-L1 and MYC-TRAPPC4, IP for FLAG and for MYC
[2] = biological target: programmed death-1 (PD-1) ligand 1 (PD-L1), endogenous (human (endogenous in RKO and LoVo)) (UniProt Q9NZQ7); test: co-IP; co-immunoprecipitation of PD-L1 with TRAPP subunits (Supplementary Fig. 1b); cells and antibodies not shown
[3] = biological target: RAB11a (UniProt P62491); test: co-IP; co-immunoprecipitation of RAB11 with TRAPPC4 and PD-L1, IgG as control; cells not named; also after silencing of TRAPPC4 by siRNA (PD-L1 with RAB11a reduced)
[4] = biological target: programmed death-1 (PD-1) ligand 1 (PD-L1), endogenous (human (endogenous in RKO and LoVo)) (UniProt Q9NZQ7); test: co-IP; endogenous proteins, RKO and LoVo lysates, IP lysis buffer, Protein G agarose, IgG as control

Row | Substance | binding [2] | binding [3] | also measured
1 | MYC-TRAPPC4 (from UniProt Q9Y296 1-219) |  |  | binding [1]: binds
2 | TRAPPC3 (from UniProt O43617 1-180) | binds |  | 
3 | TRAPPC8 (from UniProt Q9Y2L5 1-1435) | binds |  | 
4 | TRAPPC12 (from UniProt Q8WVT3 1-735) | binds |  | 
5 | programmed death-1 (PD-1) ligand 1 (PD-L1), endogenous (from UniProt Q9NZQ7 19-290) |  | binds | 
6 | trafficking protein particle complex subunit 4 (TRAPPC4), endogenous (from UniProt Q9Y296 1-219) | binds | binds | binding [4]: binds
